Results published in PubChem BioAssay AID720601 (Broad Institute, 2013).
The list shows a part of the results. Further columns of the screen follow, without active or inactive calls.

Assay: cytotoxicity in immortalized mouse myoblasts – cell-based, Alamar Blue fluorescence, 8/24/48 h, dry powder, cytotoxicity control for HRAS target identification, dose response (AID 720601)
Details: C2C12 mouse myoblast viability, at 35 µM, stronger effect = lower value

COc1ccc(N(C(=O)CCl)C(C(=O)NCCc2ccccc2)c2cccs2)cc1Cl (stereo not given)
activity (8 h viability change): 1.7% | activity (24 h viability change): -12.3%

C#CCCCC(=O)NCCOCCOCCOc1ccc(N(C(=O)CCl)C(C(=O)NCCc2ccccc2)c2cccs2)cc1Cl (stereo not given)
activity (8 h viability change): 3.92% | activity (24 h viability change): -9.34%

Cc1onc(C(=O)N2CCN(C(c3ccc(Cl)cc3)c3ccc(Cl)cc3)CC2)c1[N+](=O)[O-]
activity (8 h viability change): 0.389% | activity (24 h viability change): -11.1%

COC(=O)c1ccc([C@@H]2c3[nH]c4ccccc4c3C[C@@H](C(=O)OC)N2C(=O)CCl)cc1
activity (8 h viability change): 6.88% | activity (24 h viability change): -10.9%

CC(C)(C)OC(=O)NCCOCCOCCOc1ccc(N(C(=O)CCl)C(C(=O)NCCc2ccccc2)c2cccs2)cc1Cl (stereo not given)
activity (8 h viability change): 3.69% | activity (24 h viability change): -9.96%
